# Source: the supplement of paper PMC5711842
# Structures can show the parent of a compound that is named as a salt. Single values of this set are uncertain.
# Test system: Danio rerio embryo
# Assay: lowest lethal concentration (of 2, 10, 50 µM tested), 10-36 hpf treatment; higher = less toxic
# Settings: treatment window: 10-36 hpf
row,SMILES,lowest lethal concentration [µM]
1,Clc1ccc(C(c2ccc(Cl)cc2)[n+]2ccn(CC(OCc3ccc(Cl)cc3Cl)c3ccc(Cl)cc3Cl)c2)cc1 (stereo not given) [Calmidazolium Chloride],50
2,COc1cccc(-c2cc(NCc3ccc4c(c3)OCO4)nc(N)n2)c1 [Wnt Agonist],2
3,CCCCCCCCCCCCCC(=O)N[C@H](C)[C@@H](O)c1ccccc1 [D-erythro-MAPP],> 50
4,C/C=C/C(=O)N1C(=O)OC[C@@H]1Cc1ccccc1 [Locostatin],50
5,O=C1OC2(c3ccccc31)c1ccc(O)c(O)c1Oc1c2ccc(O)c1O [Gallein],> 50
6,C[C@]12C[C@H](O)[C@H]3[C@@H](CCC4=CC(=O)CC[C@@]43C)[C@@H]1CC[C@@H]2C(=O)CO [Corticosterone],> 50
7,CC(/C=C/c1cccc(Oc2ccc(F)cc2)c1)N(O)C(N)=O (stereo not given) [BW B70C],> 50
8,C=C1[C@@H](O)[C@@H]2O[C@]3(CC[C@H](/C=C/[C@@H](C)[C@@H]4CC(C)=C[C@@]5(O[C@H](C[C@@](C)(O)C(=O)O)CC[C@H]5O)O4)O3)CC[C@H]2O[C@@H]1[C@@H](O)C[C@H](C)[C@H]1O[C@@]2(CCCCO2)CC[C@H]1C [Okadaic acid],> 50
9,Oc1ccc2ccccc2c1SSc1c(O)ccc2ccccc12 [IPA-3],> 50
10,CSCC[C@H](NC(=O)[C@H](Cc1ccccc1)NC[C@@H](NC[C@@H](N)CS)C(C)C)C(=O)O [B581],> 50
11,Cc1cncc2cccc(S(=O)(=O)N3CCCN(C(=O)CN)C[C@@H]3C)c12 [Rho Kinase Inhibitor IV],> 50
12,Cc1cccc(NC(=O)Nc2ccc(-c3cccc4[nH]nc(N)c34)cc2)c1 [VEGFR2/Flt3/c-Kit Inhibitor],> 50
13,NC(=O)[C@H]1CCCCc2c1[nH]c1ccc(Cl)cc21 [Compound (S)-35],> 50
14,CN=c1nc(-c2ccccc2)n(-c2ccccc2)s1,> 50
15,O=CN1CC/C(=C/c2ccc3c(c2)OCO3)C1=O [KNK437],> 50
16,CC(=N)NCc1cccc(CN)c1 [1400W],> 50
17,COC[C@H]1OC(=O)c2coc3c2[C@@]1(C)C1=C(C3=O)[C@@H]2CCC(=O)[C@@]2(C)C[C@H]1OC(C)=O [Wortmannin],50
18,O=[N+]([O-])/C=C/c1ccc2c(c1)OCO2 [Syk Inhibitor III],> 50
19,Cc1nc(-c2ccccc2)c(-c2ccncc2)o1,> 50
20,O=S(=O)(O)c1ccc2cc(N=Nc3cc(S(=O)(=O)O)c4cccnc4c3O)ccc2c1,> 50
21,CCCCCCCCCCCCCCCCn1cc[n+](Cc2ccccc2)c1C [NH125],50
22,CC1(C)[C@H]2CC[C@](C)(C2)[C@H]1NS(=O)(=O)c1ccc(F)cc1 [gamma-Secretase Inhibitor VI],> 50
23,O=C(Nc1ncc([N+](=O)[O-])s1)c1ccc([N+](=O)[O-])c(Cl)c1 [NF-kappaB Activation Inhibitor III],50
24,O=c1cc(-c2ccccc2)oc2cc(O)c(O)c(O)c12 [Baicalein],50
25,CN(C)CCCn1cc(C2=C(c3c[nH]c4ccccc34)C(=O)NC2=O)c2ccccc21 [Bisindolylmaleimide I HCl],> 50
26,CCOC(=O)c1cn(-c2c(F)c(F)c(C#N)c(F)c2F)c2c(F)c(F)c(F)cc2c1=O [STAT3 Inhibitor VII],10
27,CC(=O)c1ccc(NN=C(C(N)=O)C2=NC(C)(C)Cc3ccccc32)cc1 [IQ-1],50
28,COc1cc2c3cc1Oc1c(OC)c(OC)cc4c1[C@@H](Cc1ccc(OC(=O)c5ccc([N+](=O)[O-])cc5)c(c1)Oc1ccc(cc1)C[C@@H]3N(C)CC2)N(C)CC4 [E6 Berbamine],> 50
29,COc1cc2ncn(-c3cc(OCc4ccc(S(C)(=O)=O)cc4)c(C(N)=O)s3)c2cc1OC [Polo-like Kinase Inhibitor I],> 50
30,COc1cc(OC)c(C=C2C(=O)Nc3ccccc32)c(OC)c1 [IC261],10

# 2 compounds drawn at random from those above:
row,SMILES,lowest lethal concentration [µM]
5,O=C1OC2(c3ccccc31)c1ccc(O)c(O)c1Oc1c2ccc(O)c1O [Gallein],> 50
6,C[C@]12C[C@H](O)[C@H]3[C@@H](CCC4=CC(=O)CC[C@@]43C)[C@@H]1CC[C@@H]2C(=O)CO [Corticosterone],> 50
